Results published in US7101851 (dated 2006).
No constants are given. Whether binding was seen depends on the method and setting. Some binding calls cover weakened binding; strength is not graded here.

target: extracellular domain of the alpha subunit of the human FcεRI (aa 1-176) (human) (UniProt P12319); assay: competitive phage ELISA on FcεRI (FIG. 1)

Binder	binding
IVCPRLCYVGGKALCPDVCYVGGGSGGGGSGSGDY (peptide, not shown: large carriers) [IGE120-phage …]	binds

target: T1, FcεRI-IgG (UniProt P12319 26-205); assay: p8 phage clone, phage ELISA on FcεRI-IgG
T1 construct: extracellular domain; Produced from CHO cells (Genentech); also called FcεRI-Fc; bivalent fusion protein of the extracellular domain of FcεRI and the Fc domain of IgG; not shown: Fc domain of IgG
T1 sequence (looked up): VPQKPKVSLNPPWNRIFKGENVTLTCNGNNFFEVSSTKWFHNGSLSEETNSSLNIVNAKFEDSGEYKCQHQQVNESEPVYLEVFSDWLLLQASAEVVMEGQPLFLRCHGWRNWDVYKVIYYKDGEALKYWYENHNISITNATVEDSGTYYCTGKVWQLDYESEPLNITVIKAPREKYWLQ

Binder	binding
VECPAVCYV (peptide, not shown: large carriers)	binds
QVCPAICYS (peptide, not shown: large carriers)	binds
AICPALCYE (peptide, not shown: large carriers)	binds
AECPIMCYS (peptide, not shown: large carriers)	binds
SVCPSLCYV (peptide, not shown: large carriers)	binds
ALCPEVCYV (peptide, not shown: large carriers)	binds
LNCSQPCQR (peptide, not shown: large carriers)	binds
LVCPDLCYG (peptide, not shown: large carriers)	binds
AECPLGCYA (peptide, not shown: large carriers)	binds

target: T1, FcεRI-IgG; assay: g8 phage clones selected on immobilized FcεRI-IgG

Binder	binding
QEWTCVEGPRGWECIAVL (peptide, not shown: large carriers) [g8a.18 phage clone …]	binds
TGEACVEGPGAWVCCLEP (peptide, not shown: large carriers) [g8a.20 phage clone …]	binds
